# Library screen at single concentrations

Protein sequences, listed by entry. Tags and fused reporters are not part of them. Residues count along the entry.
UniProt Q8IDJ8, 1-583: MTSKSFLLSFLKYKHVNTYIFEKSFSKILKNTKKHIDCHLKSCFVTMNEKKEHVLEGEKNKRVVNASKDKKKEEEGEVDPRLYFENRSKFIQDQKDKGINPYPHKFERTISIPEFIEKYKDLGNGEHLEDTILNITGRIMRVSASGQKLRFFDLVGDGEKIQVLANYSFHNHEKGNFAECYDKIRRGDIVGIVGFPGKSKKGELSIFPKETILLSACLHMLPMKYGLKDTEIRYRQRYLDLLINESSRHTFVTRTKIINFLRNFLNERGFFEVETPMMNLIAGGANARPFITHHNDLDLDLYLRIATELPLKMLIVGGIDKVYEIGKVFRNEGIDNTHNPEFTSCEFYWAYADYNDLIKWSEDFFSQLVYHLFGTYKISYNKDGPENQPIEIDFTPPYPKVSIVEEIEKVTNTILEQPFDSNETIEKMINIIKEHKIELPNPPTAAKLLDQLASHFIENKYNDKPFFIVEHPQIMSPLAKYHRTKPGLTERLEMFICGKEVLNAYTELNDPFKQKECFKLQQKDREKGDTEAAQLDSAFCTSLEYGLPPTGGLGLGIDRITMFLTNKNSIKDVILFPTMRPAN
UniProt P9WFT3, whole entry: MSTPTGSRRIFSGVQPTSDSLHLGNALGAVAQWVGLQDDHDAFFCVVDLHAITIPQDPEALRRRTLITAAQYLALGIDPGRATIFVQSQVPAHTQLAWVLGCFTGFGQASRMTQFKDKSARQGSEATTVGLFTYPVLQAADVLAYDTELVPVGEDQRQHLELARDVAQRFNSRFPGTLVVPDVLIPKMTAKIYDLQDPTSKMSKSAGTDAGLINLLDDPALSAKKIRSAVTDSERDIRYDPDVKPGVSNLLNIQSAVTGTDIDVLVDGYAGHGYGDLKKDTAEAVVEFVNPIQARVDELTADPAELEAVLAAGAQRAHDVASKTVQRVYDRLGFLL

From ChEMBL document CHEMBL3988442, “University of Dundee, Small-Polar-MMV Screening Library” (2021).

Results are given as percent effect. How 0% and 100% were set is not recorded. Most values in the screen are low, and negative values occur. Compounds were drawn at random from those tested, without regard to their results. Two or more numbers in one place are separate tests of the same structure; such repeats can differ widely. A dash means the value is not listed here; it may have been measured.

A: 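Lysine-tRNA ligase, Plasmodium falciparum 3D7 (UniProt Q8IDJ8). Enzyme assay of the cytosolic lysyl-tRNA synthetase in 384-well plates, read by luminescence. Tested at 30 µM. Direction is inferred from only a few compounds that gave an IC50; most scored high, so higher reads as stronger inhibition. Of about 69,000 compounds tested this way, about 49 (0.071%) reached 50% or more in at least one test.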
B: 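Enzyme assay of tryptophanyl-tRNA synthetase; the read-out is not stated. Target: Tryptophan-tRNA ligase, Mycobacterium tuberculosis (UniProt P9WFT3). Concentration: 10 µM. Higher most likely means stronger inhibition; the record gives no direction and few retests gave an IC50. Of about 65,000 compounds tested this way, about 64 (0.098%) reached 50% or more in at least one test.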
C: 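Cell assay of Leishmania donovani living inside macrophages; the read-out is not stated. Compounds at 30 µM. Higher reads as stronger inhibition (inferred: compounds with an IC50 in retests scored well above the rest). Of about 69,000 compounds tested this way, about 1,000 (1.5%) reached 50% or more in at least one test.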

SMILES	A	B	C
Cn1ccnc1CN1C(=O)CO[C@H]2CN(CCCc3ccccc3)C[C@H]21	3.001	-1.29	-
O=C1OCCCN1Cc1nc(-c2ccc(N3CCCCC3)cc2)no1	3.751	2.709	8.764
Cc1ccccc1CC(=O)N1C[C@H]2CC[C@@H]1CN(Cc1cccnc1)C2	4.183	2.314	-
Cc1nc(O)cc(CNC(=O)CC[C@@H]2CCCN3CCCC[C@H]23)n1	2.908	3.119	-
COc1c(C2CCCN2Cc2noc(C)n2)c(C)nn1C (stereo not shown)	-0.518	18.53	-24.03
CCN1CCN(Cc2nc(Cc3ccccc3)n[nH]2)CC1	-1.626	7.55	21.59
CC1(C)C(C(=O)NCCC2CN(Cc3c[nH]cn3)CCO2)C1(C)C (stereo not shown)	6.853	0.2469	-11.53
Cc1nnc(NC(=O)CN2CCCC(c3ccn[nH]3)C2)s1 (stereo not shown)	1.728	8.845	-18.19
Cc1nc(C)n(CC2CCCN2Cc2cnc(C)s2)n1 (stereo not shown)	1.335	1.221	18.72
CCN1C[C@H]2C3(CCN(C(C)=O)CC3)CC[C@@]2(C(=O)N(C)C)C1	-1.44	-7.277	-
Cc1noc(C)c1CN1CCc2ncc(Cn3cccn3)n2CC1	8.111	-4.766	-
CC(C)Oc1ccc(C(=O)NCc2ccnc(N3CCCC3)c2)cn1	5.389	0.3894	37.51
CC(C)n1cnnc1CN(C)C(=O)Cn1ccc2ccccc2c1=O	1.944	2.039	34.07
COCCN1C[C@H]2[C@@H](C1)N(C(=O)c1cccc(OC)c1)CC[C@H]2OC	-0.08242	-3.601	-
COc1cc2c(cc1-c1nc3c(cnn3C)[nH]1)OCO2	3.483	1.503	22.34
CCN(Cc1ccco1)C(=O)Nc1cc(C(F)(F)F)c[nH]c1=O	12.62	8.869	-1.448
Cc1c(-c2n[nH]c3c2CN(CC2CCOC2)CC3)cccc1C(F)(F)F (stereo not shown)	1.895	-5.52	23.09
O=C(NCC1CC1)c1nc2c(o1)CN(CC1CC1)C2.O=C(O)C(F)(F)F	-	-	16.9
CCO[C@@H]1CC[C@H]2[C@H]1OCCN2S(=O)(=O)c1cn(C)cn1	6.936	-4.148	-
COc1c[nH]c(C(=O)N2CCN(c3ccc(Cl)cc3)CC2)cc1=O	-0.1692	-1.386	-9.749
O=C(NCCn1cccn1)Nc1cc(C(=O)N2CCOCC2)ccc1Cl	0.6811	-2.594	25.9
[H][C@@]12CCCO[C@]1([H])[C@@H](NS(C)(=O)=O)CN2C(=O)c1cscn1	-	-	30.96
CN(C)[C@@H]1C[C@@H](CO)N(C(=O)Nc2cccc(F)c2F)C1	-2.314	1.342	9.042
Cc1ccc(C2CCCCCN2CCNS(C)(=O)=O)o1 (stereo not shown)	1.338	-2.558	35.6
O=C(c1ccnn1-c1ccc2ccccn12)N1CCCC1	1.125	-	20.98
N#Cc1cc(F)ccc1NCC1CCS(=O)(=O)CC1	3.507	2.004	20.79
O=C(c1cc2c(Cl)cccc2[nH]1)N1CCN(CCc2ccccn2)CC1	-0.118	3.119	-17.69
Cc1cc(C)nc(N2CCC(C(=O)Nc3n[nH]c(C(C)C)n3)CC2)n1	-3.301	0.7282	30.87
O=C(C1CC1)N1C[C@H]2CCCN(S(=O)(=O)c3ccc4c(c3)CCC4)[C@H]2C1	-1.395	14.71	-
CC(C)c1nccc(-c2nccn2CCN(C)S(C)(=O)=O)n1	-0.4352	-2.771	-5.61
CSCC[C@@H](CO)NC(=O)c1sc(-c2ccc(Cl)cc2)nc1C	3.976	-5.392	10.95
O=C(NC1CCC1)[C@@H]1C[C@@H]2CCN(Cc3ccncc3)C[C@H]2O1	5.363	6.611	-
CC(C)CCN1CCC2(CNS(=O)(=O)c3cccnc3O2)C1 (stereo not shown)	-3.922	8.557	-2.997
CN(CCc1cn[nH]c1)Cc1nc(Cc2cccc(F)c2)no1	0.5054	3.307	12.08
CCC(C)N(Cc1cc(C)n[nH]1)Cc1ccccc1Cl (stereo not shown)	4.152	0.677	32.87
CCN(C)C(=O)Cn1c(-c2ccco2)nn(-c2ccccc2OC)c1=O	3.933	0.6441	12.99
CCc1ncc(CN(C)C2CCN(C(C)C)CC2)cn1.O=C(O)CC(O)(CC(=O)O)C(=O)O	-	-	8.487
CC(C)COCCC(=O)Nc1cc(-n2nnnc2C2CC2)ccc1F	10.01	3.016	14.62
CC(C)(Oc1ccc(F)cc1)C(=O)NCc1ccco1	2.782	0.3027	0.4913
COc1cccc(COCC(=O)N2CCCN(CC(N)=O)CC2)c1	3.208	-5.587	22.51
CC(NCC(=O)NCC(=O)Nc1ccc(F)cc1)c1cccs1 (stereo not shown)	3.517	0.000014	-7.784
CCc1nnc2n1CCN(C(=O)c1cc(Br)c[nH]1)C2	5.669	2.478	25.61
O=C(Cc1cccnc1)N1CCC2(CCN(CC3CCCCC3)C2)CC1	3.395	2.972	-
O=C([C@@H]1C[C@@H]2CCN(C3CCOCC3)C[C@H]2O1)N1CCOCC1	0.8334	2.995	-
Cc1nc(NCc2ccco2)nc2c1COCC21CCNC1 (stereo not shown)	7.386	-5.289	-
[H][C@]12CCCCN1CCC[C@@]2(O)Cn1cnc(Cl)c1Cl	-	-	41.41
CCOC(=O)N1[C@@H](c2ccco2)[C@@H](C(=O)O)C[C@]12CCCCNC2=O	5.832	-	17.12
Cc1noc(C2CCC3(CCN(C(=O)c4cc(C5CC5)on4)CC3)O2)n1 (stereo not shown)	0.3241	-7.895	-6.278
Cc1nc(C)n(C2CCCN(C(=O)CCCNc3ncccn3)C2)n1 (stereo not shown)	-0.09643	-5.632	-16.42
CC(C)c1nn(C)c(N(C)C)c1CNCc1ccccc1CO	-0.1734	-1.456	-
Cn1cc(C2COC3(CCN(C(=O)c4ccccn4)CC3)C2)cn1.O=C(O)C(F)(F)F (stereo not shown)	-	-	2.439
CN(C)Cc1cncc2c1CCN(C1CCOCC1)C2.Cl.Cl.Cl	-	-	1.797
COc1cnc(CSc2nnc(C)s2)cc1OCC(=O)NC1CCCC1	2.275	0.2045	5.915 and -0.59
Cc1csc(C(=O)N2CCC3(CC(N(C)c4ccncn4)C3)C2)c1 (stereo not shown)	0.9624	-	2.342 and 2.042
Cc1ccc(N2CCCC(N3CCN(CC(F)F)CC3)C2=O)cc1 (stereo not shown)	3.606	-3.838	4.268
CCC(=O)N1CCCC(C(=O)N2CCN(c3cnn(C)c(=O)c3)CC2)C1 (stereo not shown)	0.06792	-7.895	20.11

Some entries from above, unchanged:

* CCC(=O)N1CCCC(C(=O)N2CCN(c3cnn(C)c(=O)c3)CC2)C1 (stereo not shown) | A: 0.06792%; B: -7.895%; C: 20.11%
* O=C1OCCCN1Cc1nc(-c2ccc(N3CCCCC3)cc2)no1 | A: 3.751%; B: 2.709%; C: 8.764%
* CC(C)(Oc1ccc(F)cc1)C(=O)NCc1ccco1 | A: 2.782%; B: 0.3027%; C: 0.4913%
* Cc1cc(C)nc(N2CCC(C(=O)Nc3n[nH]c(C(C)C)n3)CC2)n1 | A: -3.301%; B: 0.7282%; C: 30.87%
* CCN(Cc1ccco1)C(=O)Nc1cc(C(F)(F)F)c[nH]c1=O | A: 12.62%; B: 8.869%; C: -1.448%